Measured values published in US20260284208A1, “SYSTEM” (Oxford University Innovation Limited, priority 2023, published 2026).
Further values from the same series stand in other lists.

Tested on: library of 8,380 IKZF3 degrons (ZF-eGFP/mCherry reporter) in Jurkat cells
Experiment: Pooled library screen (FACS, NGS, limma voom LogFC of positive vs negative read counts)
Type: cell-based, human
Description: A library of 8,380 IKZF3 degrons was cloned into pLVX-Sprout to create the eGFP/mCherry protein degradation reporter plasmid pool. A lentivirus pool was then generated using the Lenti-X lentiviral vector production method.
Jurkat cells were transduced at a multiplicity of infection of <0.3 with the lentivirus vector library in order to maximise the number of cells with a single integration. Transductions were carried out in 6 well TC-treated cell culture dishes (Falcon) with 3×10^6 cells per well. Cells were incubated for 2 days at 37° C. and 5% CO2 before the supernatant was removed and replaced with fresh media. 6 days post-transduction, mCherry+ cells were isolated via FACS using the FACS Aria Fusion (BD) in a buffer containing PBS (Gibco), 2 mM EDTA (Gibco), 25 mM HEPES (Sigma) and 1% BSA (Sigma). 8 days later, cells were treated with DMSO or a thalidomide analog for 18 hours at 37° C. and 5% CO2. mCherry+GFPlow and NOT(mCherry+GFPlow) cells were sorted by FACS using the FACS Aria Fusion (BD). DMSO treated cells were used to set the mCherry+GFPlow gate and dead cells were excluded from sorting by staining cells with 1 μg/mL DAPI (ThermoFisher). gDNA was isolated using the Maxwell RSC 48 (Promega). gDNA from cells that were unsorted and untreated were also isolated to determine the library representation on the day of compound treatment. Throughout the screen >600× coverage of the library was maintained. 3 biological replicates were carried out with a new transduction taking place each time.
A two-step PCR was used where the first PCR (PCR1) amplified the integrated degron sequence from gDNA and the second PCR (PCR2) added Illumina adaptors and barcodes to permit multiplexing. See Supp F for PCR1 and PCR2 primers. Q5 Hot Start High-Fidelity 2× Master Mix (New England Biolabs) was used for both PCRs. Sufficient gDNA was amplified in PCR1 in order to maintain >600× coverage and amplicons were purified using solid phase reversible immobilization (SPRI) beads (Beckman Coulter). Purified PCR1 products were analysed on the Tapestation 4200 (Agilent) to confirm purity prior to proceeding to PCR2. Sufficient PCR1 product was amplified in PCR2 in order to maintain >600× coverage and amplicons were run on a 2% agarose TAE gel. Target bands were excised and purified using the NucleoSpin Gel and PCR Clean-up Kit (Machery Nagel). Amplicons were analysed on the Tapestation 4200 and quantified using Qubit dsDNA HS kit (ThermoFisher). PCR products were pooled and sequenced as paired-reads on the NovaSeq (Illumina) using a SP2 200 cycles kit (Illumina).
Count distributions, percentage of read mapping, library coverage and replicate correlation per sample were assessed for QC purposes.
To carry out the library screen, we used the same plasmid construct as in our earlier flow cytometry assays, but pooling all 8,380 mutants together into one Jurkat population, ensuring a copy number of one plasmid per cell (FIG. 4B). […] These GFP-negative cells were then separated from the remaining GFP-positive population using fluorescence activated cell sorting (FACS). These two populations were then sequenced and the relative abundance of every mutant in both populations compared to provide a log FC value for each mutant sequence. This value indicated how frequently a sequence is observed in the GFP-negative population relative to the GFP-positive population, and therefore how effective a degron it is for that particular IMID compound.

Q: What does the source list for `O=C1CCC(N2C(=O)c3ccc(N4CCOCC4)cc3C2=O)C(=O)N1` (stereo not drawn) [B03]?
A: B03_logFC (Degron-ID 4399, SEQ ID NO 3878, 46F_47Y_49E_50I_52G_53A_54Y_55F_67L): 2.886; B03_logFC (Degron-ID 4400, SEQ ID NO 4373, 46F_47Y_49E_50Q_52G_53A_54A_55F_67L_): 2.084; B03_logFC (Degron-ID 4401, SEQ ID NO 4264, 46F_47Y_49E_50Q_52G_53A_54C_55F_67L_): 2.268; B03_logFC (Degron-ID 4414, SEQ ID NO 3762, 46F_47Y_49E_50Q_52G_53A_54R_55F_67L_): 3.104; B03_logFC (Degron-ID 4423, SEQ ID NO 3834, 46F_47Y_49E_50V_52G_53A_54E_55F_67L_): 2.951; B03_logFC (Degron-ID 4424, SEQ ID NO 3933, 46F_47Y_49E_50V_52G_53A_54F_55F_67L): 2.783; B03_logFC (Degron-ID 4425, SEQ ID NO 3699, 46F_47Y_49E_50V_52G_53A_54G_55F_67L_): 3.223; B03_logFC (Degron-ID 4429, SEQ ID NO 3789, 46F_47Y_49E_50V_52G_53A_54L_55F_67L_): 3.029; B03_logFC (Degron-ID 4439, SEQ ID NO 3889, 46F_47Y_49E_50V_52G_53A_54Y_55F_67L): 2.87; B03_logFC (Degron-ID 4440, SEQ ID NO 3822, 46F_47Y_49N_50I_52G_53A_54A_55F_67L_): 2.967; B03_logFC (Degron-ID 4441, SEQ ID NO 3733, 46F_47Y_49N_50I_52G_53A_54C_55F_67L_): 3.151; B03_logFC (Degron-ID 4446, SEQ ID NO 3904, 46F_47Y_49N_50I_52G_53A_54H_55F_67L): 2.843; B03_logFC (Degron-ID 4448, SEQ ID NO 4311, 46F_47Y_49N_50I_52G_53A_54K_55F_67L_): 2.189; B03_logFC (Degron-ID 4451, SEQ ID NO 3872, 46F_47Y_49N_50I_52G_53A_54N_55F_67L): 2.893; B03_logFC (Degron-ID 4453, SEQ ID NO 3738, 46F_47Y_49N_50I_52G_53A_54Q_55F_67L_): 3.148; B03_logFC (Degron-ID 4455, SEQ ID NO 3838, 46F_47Y_49N_50I_52G_53A_54S_55F_67L_): 2.946; B03_logFC (Degron-ID 4480, SEQ ID NO 4429, 46F_47Y_49N_50V_52G_53A_54A_55F_67L_): 2.012; B03_logFC (Degron-ID 4500, SEQ ID NO 3690, 46F_47Y_49P_50I_52G_53A_54A_55F_67L_): 3.239; B03_logFC (Degron-ID 4504, SEQ ID NO 3885, 46F_47Y_49P_50I_52G_53A_54F_55F_67L): 2.873; B03_logFC (Degron-ID 4505, SEQ ID NO 4416, 46F_47Y_49P_50I_52G_53A_54G_55F_67L_): 2.023; B03_logFC (Degron-ID 4507, SEQ ID NO 3913, 46F_47Y_49P_50I_52G_53A_54I_55F_67L): 2.825; B03_logFC (Degron-ID 4508, SEQ ID NO 3772, 46F_47Y_49P_50I_52G_53A_54K_55F_67L_): 3.067; B03_logFC (Degron-ID 4509, SEQ ID NO 3843, 46F_47Y_49P_50I_52G_53A_54L_55F_67L_): 2.934; B03_logFC (Degron-ID 4512, SEQ ID NO 3680, 46F_47Y_49P_50I_52G_53A_54P_55F_67L_): 3.274; B03_logFC (Degron-ID 4517, SEQ ID NO 3792, 46F_47Y_49P_50I_52G_53A_54V_55F_67L_): 3.027; B03_logFC (Degron-ID 4519, SEQ ID NO 3756, 46F_47Y_49P_50I_52G_53A_54Y_55F_67L_): 3.116; B03_logFC (Degron-ID 4521, SEQ ID NO 4344, 46F_47Y_49P_50Q_52G_53A_54C_55F_67L_): 2.136; B03_logFC (Degron-ID 4534, SEQ ID NO 4380, 46F_47Y_49P_50Q_52G_53A_54R_55F_67L_): 2.067; B03_logFC (Degron-ID 4535, SEQ ID NO 4338, 46F_47Y_49P_50Q_52G_53A_54S_55F_67L_): 2.146; B03_logFC (Degron-ID 4540, SEQ ID NO 3901, 46F_47Y_49P_50V_52G_53A_54A_55F_67L): 2.85; B03_logFC (Degron-ID 4543, SEQ ID NO 4308, 46F_47Y_49P_50V_52G_53A_54E_55F_67L_): 2.191; B03_logFC (Degron-ID 4545, SEQ ID NO 4379, 46F_47Y_49P_50V_52G_53A_54G_55F_67L_): 2.073; B03_logFC (Degron-ID 4548, SEQ ID NO 3914, 46F_47Y_49P_50V_52G_53A_54K_55F_67L): 2.823; B03_logFC (Degron-ID 4549, SEQ ID NO 3890, 46F_47Y_49P_50V_52G_53A_54L_55F_67L): 2.87; B03_logFC (Degron-ID 4552, SEQ ID NO 3691, 46F_47Y_49P_50V_52G_53A_54P_55F_67L_): 3.239; B03_logFC (Degron-ID 4554, SEQ ID NO 3776, 46F_47Y_49P_50V_52G_53A_54R_55F_67L_): 3.052; B03_logFC (Degron-ID 4555, SEQ ID NO 3669, 46F_47Y_49P_50V_52G_53A_54S_55F_67L_): 3.296; B03_logFC (Degron-ID 4557, SEQ ID NO 3895, 46F_47Y_49P_50V_52G_53A_54V_55F_67L): 2.859; B03_logFC (Degron-ID 6173, SEQ ID NO 4356, 46F_47F_49P_50I_52G_53R_54Q_55F_67L_): 2.114; B03_logFC (Degron-ID 6352, SEQ ID NO 3871, 46F_47R_49P_50I_52G_53R_54P_55F_67L): 2.893; B03_logFC (Degron-ID 6433, SEQ ID NO 3831, 46F_47W_49P_50I_52G_53R_54Q_55F_67L_): 2.956; B03_logFC (Degron-ID 6460, SEQ ID NO 3836, 46L_47A_49P_50I_52G_53F_54A_55C_67L_): 2.95
